PubChem BioAssay AID1159579, Peter MacCallum Cancer Centre, 2015

Aim: 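Find genes whose silencing alters migration of lymphatic endothelial cells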 (follow-up of hits)
Cells: human dermal lymphatic endothelial cells
Knock-down reagent: single siRNA against human genes, 25 nM
Read-out: 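Scratch wound imaging measuring area filled by moving cells plus nuclei number, averaged over two wells and scaled to mock-transfected controls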
Direction: migration relative to mock: higher = more migration into the scratch; mean nuclei count: higher = more cells remaining
Hit rule: 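a ratio of at most 0.6 or at least 1.3 marks altered migration and an active call; a mean nuclei count under 3300 forces an inactive call regardless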
Meaning of the calls: active = migration changed (impaired or accelerated); inactive = no migration change, or too few cells
The deposit covers about 2,000 reagents; this is an unselected part. Over the whole deposit, 549 (27%) were called active. 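Some migration ratios are negative; siRNAs with too few cells are inactive whatever their migration ratio.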 Reagents against one gene are numbered here. Not all columns of the deposit are shown. Reagent sequences are not shown. Not given: the time to read-out.

TMEM126A (transmembrane protein 126A) #1 → migration relative to mock = 0.54; mean nuclei count = 5054; call = active
TMEM126A (transmembrane protein 126A) #2 → migration relative to mock = 0.93; mean nuclei count = 6184; call = inactive
TMEM126A (transmembrane protein 126A) #3 → migration relative to mock = 0.74; mean nuclei count = 4200; call = inactive
TMEM126A (transmembrane protein 126A) #4 → migration relative to mock = 0.9; mean nuclei count = 6064; call = inactive
CRCT1 (cysteine rich C-terminal 1) #1 → migration relative to mock = 0.24; mean nuclei count = 4300; call = active
CRCT1 (cysteine rich C-terminal 1) #2 → migration relative to mock = 0.62; mean nuclei count = 6964; call = inactive
CRCT1 (cysteine rich C-terminal 1) #3 → migration relative to mock = 0.6; mean nuclei count = 4348; call = active
CRCT1 (cysteine rich C-terminal 1) #4 → migration relative to mock = 0.66; mean nuclei count = 5280; call = inactive
FAM222B (family with sequence similarity 222 member B) #1 → migration relative to mock = 0.71; mean nuclei count = 4042; call = inactive
FAM222B (family with sequence similarity 222 member B) #2 → migration relative to mock = 1.1; mean nuclei count = 5862; call = inactive
FAM222B (family with sequence similarity 222 member B) #3 → migration relative to mock = 0.79; mean nuclei count = 6020; call = inactive
FAM222B (family with sequence similarity 222 member B) #4 → migration relative to mock = 0.82; mean nuclei count = 6012; call = inactive
AKR1C6P (aldo-keto reductase family 1 member C6, pseudogene) #1 → migration relative to mock = 0.4; mean nuclei count = 5536; call = active
AKR1C6P (aldo-keto reductase family 1 member C6, pseudogene) #2 → migration relative to mock = 1.07; mean nuclei count = 5124; call = inactive
AKR1C6P (aldo-keto reductase family 1 member C6, pseudogene) #3 → migration relative to mock = 0.41; mean nuclei count = 4031; call = active
AKR1C6P (aldo-keto reductase family 1 member C6, pseudogene) #4 → migration relative to mock = 1.04; mean nuclei count = 4997; call = inactive
DSG1 (desmoglein 1) #1 → migration relative to mock = 0.66; mean nuclei count = 4608; call = inactive
DSG1 (desmoglein 1) #2 → migration relative to mock = 1.04; mean nuclei count = 5197; call = inactive
DSG1 (desmoglein 1) #3 → migration relative to mock = -0.48; mean nuclei count = 3318; call = active
DSG1 (desmoglein 1) #4 → migration relative to mock = 0.92; mean nuclei count = 4965; call = inactive
LRPPRC (leucine rich pentatricopeptide repeat containing) #1 → migration relative to mock = 0.87; mean nuclei count = 5592; call = inactive
LRPPRC (leucine rich pentatricopeptide repeat containing) #2 → migration relative to mock = 0.42; mean nuclei count = 3691; call = active
LRPPRC (leucine rich pentatricopeptide repeat containing) #3 → migration relative to mock = 1.02; mean nuclei count = 6274; call = inactive
LRPPRC (leucine rich pentatricopeptide repeat containing) #4 → migration relative to mock = 0.9; mean nuclei count = 5206; call = inactive
CADM1 (cell adhesion molecule 1) #1 → migration relative to mock = 0.65; mean nuclei count = 4644; call = inactive
CADM1 (cell adhesion molecule 1) #2 → migration relative to mock = 0.89; mean nuclei count = 5160; call = inactive
CADM1 (cell adhesion molecule 1) #3 → migration relative to mock = 0.92; mean nuclei count = 5740; call = inactive
CADM1 (cell adhesion molecule 1) #4 → migration relative to mock = 0.55; mean nuclei count = 4541; call = active
TNFSF8 (TNF superfamily member 8) #1 → migration relative to mock = 1.04; mean nuclei count = 6424; call = inactive
TNFSF8 (TNF superfamily member 8) #2 → migration relative to mock = 0.21; mean nuclei count = 3312; call = active
TNFSF8 (TNF superfamily member 8) #3 → migration relative to mock = 0.57; mean nuclei count = 5171; call = active
TNFSF8 (TNF superfamily member 8) #4 → migration relative to mock = 1.06; mean nuclei count = 6236; call = inactive
TMEM255A (transmembrane protein 255A) #1 → migration relative to mock = 0.73; mean nuclei count = 5576; call = inactive
TMEM255A (transmembrane protein 255A) #2 → migration relative to mock = 0.61; mean nuclei count = 4970; call = inactive
TMEM255A (transmembrane protein 255A) #3 → migration relative to mock = 0.95; mean nuclei count = 4706; call = inactive
TMEM255A (transmembrane protein 255A) #4 → migration relative to mock = 0.66; mean nuclei count = 4697; call = inactive
NIF3L1 (NGG1 interacting factor 3 like 1) #1 → migration relative to mock = 0.82; mean nuclei count = 6876; call = inactive
NIF3L1 (NGG1 interacting factor 3 like 1) #2 → migration relative to mock = 0.98; mean nuclei count = 5354; call = inactive
NIF3L1 (NGG1 interacting factor 3 like 1) #3 → migration relative to mock = 0.87; mean nuclei count = 5206; call = inactive
NIF3L1 (NGG1 interacting factor 3 like 1) #4 → migration relative to mock = 0.86; mean nuclei count = 4477; call = inactive
TLL2 (tolloid like 2) #1 → migration relative to mock = 0.87; mean nuclei count = 4078; call = inactive
TLL2 (tolloid like 2) #2 → migration relative to mock = 0.51; mean nuclei count = 4206; call = active
TLL2 (tolloid like 2) #3 → migration relative to mock = -0.1; mean nuclei count = 2903; call = inactive
TLL2 (tolloid like 2) #4 → migration relative to mock = 0.66; mean nuclei count = 5194; call = inactive
LIMK1 (LIM domain kinase 1) #1 → migration relative to mock = 1.06; mean nuclei count = 5496; call = inactive
LIMK1 (LIM domain kinase 1) #2 → migration relative to mock = 0.02; mean nuclei count = 3868; call = active
LIMK1 (LIM domain kinase 1) #3 → migration relative to mock = 0.96; mean nuclei count = 5784; call = inactive
LIMK1 (LIM domain kinase 1) #4 → migration relative to mock = 0.6; mean nuclei count = 5562; call = active
